The values below come from US20150197492A1, “NOVEL INDENO[1,2-c]QUINOLIN-11-ONE DERIVATIVES, PREPARATION METHOD AND APPLICATION THEREOF” (National Defense Medical Center, priority 2014, published 2015).

This data set relates to 55 to 60 cancer cell lines. The data set is classed as cell-based. As to conditions: 10 μM, 48 hours, growth percentage over all tested cell lines.

In the case of `CNc1nc2ccccc2c2c1-c1ccc(Cl)cc1C2=O` [SJ-1, 9-Chloro-6-(methylamino)-11H-indeno[1,2-c]quinolin-11-one], the Delta was determined as 115.76 and the Range is on record as 146.5.

For `CN(C)c1nc2ccccc2c2c1-c1ccc(Cl)cc1C2=O` [SJ-2, 9-Chloro-6-(dimethylamino)-11H-indeno[1,2-c]quinolin-11-one], the Delta was 86.55 and the Range turned out to be 113.03.

The molecule `CCN(CC)CCNc1nc2ccccc2c2c1-c1ccc(Cl)cc1C2=O` [SJ-3, 6-(2-(Diethylamino)ethylamino)-9-chloro-11H-indeno[1,2-c]quinolin-11-one] returned a Delta of 52.65 and a Range of 89.81.

In turn, `CC1CCN(c2nc3ccccc3c3c2-c2ccc(Cl)cc2C3=O)CC1` [SJ-6, 9-Chloro-6-(4-methylpiperidin-1-yl)-11H-indeno[1,2-c]quinolin-11-one] displayed a Delta of 32.02 and a Range of 70.61.

Regarding `O=C1c2cc(Cl)ccc2-c2c(N3CCOCC3)nc3ccccc3c21` [SJ-8, 9-Chloro-6-morpholino-11H-indeno[1,2-c]quinolin-11-one], the Delta amounted to 47.92 and the Range amounted to 91.19.

Consider `O=C1c2cc(Cl)ccc2-c2c(N3CCSCC3)nc3ccccc3c21` [SJ-9, 9-Chloro-6-thiomorpholino-11H-indeno[1,2-c]quinolin-11-one], for which the Delta came to 45.14 and the Range is 72.18.

In the case of `O=C1c2cc(Cl)ccc2-c2c(N3CCNCC3)nc3ccccc3c21` [SJ-10, 9-Chloro-6-(piperazin-1-yl)-11H-indeno[1,2-c]quinolin-11-one], the Delta is 85.63 and the Range turned out to be 167.25.

Turning to `CN1CCN(c2nc3ccccc3c3c2-c2ccc(Cl)cc2C3=O)CC1` [SJ-12, 9-Chloro-6-(4-methylpiperazin-1-yl)-11H-indeno[1,2-c]quinolin-11-one], the Delta is given as 49.65 and the Range is on record as 72.31.

Molecule `O=C1c2cc(Cl)ccc2-c2c(N3CCN(C4CCCC4)CC3)nc3ccccc3c21` [SJ-14, 9-Chloro-6-(4-cyclopentylpiperazin-1-yl)-11H-indeno[1,2-c]quinolin-11-one] gave a Delta of 23.96 and a Range of 38.16.

Regarding `O=C1c2cc(Cl)ccc2-c2c(N3CCN(c4ccccc4)CC3)nc3ccccc3c21` [SJ-16, 9-Chloro-6-(4-phenylpiperazin-1-yl)-11H-indeno[1,2-c]quinolin-11-one], the Delta was determined as 54.09 and the Range was found to be 82.41.

For `COc1cccc(N2CCN(c3nc4ccccc4c4c3-c3ccc(Cl)cc3C4=O)CC2)c1` [SJ-20, 9-Chloro-6-(4-(3-methoxyphenyl)piperazin-1-yl)-11H-indeno[1,2-c]quinolin-11-one], the Delta turned out to be 54.39 and the Range is on record as 95.58.

`O=C1c2cc(Cl)ccc2-c2c(N3CCN(C(=O)N4CCCCC4)CC3)nc3ccccc3c21` [SJ-23]: the Delta stood at 19.69 and the Range is reported as 51.13.

`O=C1c2cc(Cl)ccc2-c2c(SCCO)nc3ccccc3c21` [SJ-25, 6-(2-Hydroxyethylthio)-9-chloro-11H-indeno[1,2-c]quinolin-11-one] showed a Delta of 49.37 and a Range of 82.39.

Molecule `O=C1c2cc(Cl)ccc2-c2c(O)nc3ccccc3c21` [SJ-26, 6-Hydroxy-9-chloro-11H-indeno[1,2-c]quinolin-11-one] returned a Delta of 29.37 and a Range of 59.54.

On to `COc1nc2ccccc2c2c1-c1ccc(Cl)cc1C2=O` [SJ-27, 6-Methoxy-9-chloro-11H-indeno[1,2-c]quinolin-11-one], for which the Delta was 40.54 and the Range was found to be 65.37.

`O=C1c2cc(Cl)ccc2-c2c(Cl)nc3ccccc3c21` [TC-XCl-1, 6,9-Dichloro-11H-indeno[1,2-c]quinolin-11-one]: the Delta is given as 33.31 and the Range turned out to be 73.59.
